Values of other authors in patent publication US11234989B2, “Method for diagnosing and treating bronchial asthma” (priority 2007, dated 2022).
At least one compound was matched to its structure with a doubt left.

Conditions: fold of hydrocortisone activity

Q: Which “anti-inflammatory activity relative to hydrocortisone” value does the source give for `C[C@@H]1C[C@H]2[C@@H]3CCC4=CC(=O)C=C[C@]4(C)[C@@]3(F)[C@@H](O)C[C@]2(C)[C@@]1(O)C(=O)CO` [Decadron, Dexamethasone] here?
A: 25 to 30 times
